Data from PubChem BioAssay AID504834 (National Center for Advancing Translational Sciences (NCATS), 2011).
“And” between values parts separate entries of the source, which are not always exact repeats. Equal values may be shown once. About 22,000 (6.9%) of roughly 320,000 compounds were called active. The inconclusive results got no clear call from the source; some entries with a clear call stand among them for comparison. Calls come from the whole dose curve; as a rule, active = well fitted inhibition curve with a large enough effect; inconclusive = small, poorly fitted or top-dose-only effect, or another doubt; inactive = no such curve, though single readings can be large or run the other way. Where the call is inconclusive, the potency comes from a doubtful curve fit. Some compounds were tested as several samples or in several runs, with calls that do not always agree.
% is set by controls: 0 for no effect and ±100 for the full control effect; potency is the fitted concentration of half-maximal effect.

Test: Primary qHTS for delayed death inhibitors of the malarial parasite plastid, 96 hour incubation
Conditions: P. falciparum luciferase reporter growth; series mostly up to 28.7 µM
Method in brief: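 P. falciparum expressing integrated firefly luciferase grown in erythrocytes (2% hematocrit, 0.05% parasitemia final) with compounds for 96 hours at 37 C, 5% CO2. Growth inhibition read as loss of luminescence after adding luciferase detection reagent.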
For `COc1ccc(C(=O)Nc2cccnc2)cc1S(=O)(=O)N1CCOCC1`, the Potency was inconclusive: 13.1 µM [inhibitor, partial curve, poor fit]. For `O=S(=O)(c1ccc(Br)s1)N1CCN(CCOc2ccccc2)CC1`, the Potency was inconclusive: 9.28 µM [inhibitor, single point]. With `COC(=O)c1c(NC(=O)C(C)(C)C)sc2c1C(C(=O)OC)CC2` (stereo not drawn) the Potency was inconclusive: 0.131 µM [inhibitor, full curve, poor fit]. With `CCN(CC)C(=O)CC(c1cc(OC)c(OC)c(OC)c1)c1c(O)cc(OC)cc1OC` (stereo not drawn) the Potency was inconclusive: 7.38 µM [inhibitor, partial curve, poor fit]. With `Cc1ccc(-c2nc(CS(=O)CC(=O)NCCCN3CC(C)CC(C)C3)c(C)o2)cc1` (stereo not drawn) the Potency was inconclusive: 18.5 µM [inhibitor, single point]. In the case of `Cc1ccc(NC(=S)NNC(=O)CSc2nc3ccccc3c(=O)n2-c2ccc(C)cc2)cc1`, the Potency is reported as inconclusive: 4.65 µM [inhibitor, partial curve, poor fit]. With `Cc1cc(/C=N\NC(=O)c2cccs2)c(C)n1-c1ccc2ncccc2c1` the Potency was “inactive”. In the case of `CC1=NN(C(=O)c2ccccc2Br)C(O)(c2ccc(Cl)cc2)C1` (stereo not drawn), the Potency is reported as inconclusive: 9.28 µM [inhibitor, single point]. With `CCc1ccc(C(=O)NN(C(=O)c2ccc(CC)cc2)C(C)(C)C)cc1` the Potency was inconclusive: 5.22 µM [inhibitor, partial curve]. In the case of `CCCn1nc(NC(=O)c2ccco2)c2cc3ccccc3nc21`, the Potency is reported as inconclusive: 11.7 µM [inhibitor, partial curve]. For `CC(=O)c1ccc(OCc2cc(C(=O)N3CCCCCCC3)no2)cc1`, the Potency was active: 13.1 µM. With `COc1ccc(-n2c(C(C)n3nc(C)c([N+](=O)[O-])c3C)n[nH]c2=S)cc1` (stereo not drawn) the Potency was inconclusive: 16.5 µM [inhibitor, single point]. With `CCN(CC)CCCN=C1N[C@@H](c2ccccc2)C(C(=O)OC)=C(C)N1CC` the Potency was “inactive and active: 1.69 µM”. With `Cc1[nH]c2ccccc2c1SCCNC(=O)c1ccc(S(=O)(=O)N2CCCC2)cc1` the Potency was active: 13.1 µM. With `Cc1cc(NC(=O)COc2coc(CN3CCN(c4ccccc4)CC3)cc2=O)no1` the Potency was inconclusive: 16.5 µM [inhibitor, single point]. In the case of `Cc1ccccc1CNC(=O)Cc1cccs1`, the Potency is reported as “inactive”. In the case of `Cc1ccc(S(=O)(=O)CCC(=O)Nc2ccc(F)cc2)cc1`, the activity change, negative = inhibition is reported as inactive: 8.47% [at 5.75 µM]. For `Brc1c(NC2=NCCN2)ccc2nccnc12`, the Potency was inconclusive: 4.78 µM [inhibitor, partial curve, poor fit]. For `COc1ccc(NC(=O)c2cccc([N+](=O)[O-])c2)cc1`, the Potency was “inactive”. With `NS(=O)(=O)c1ccc(NC(=S)NC(=O)c2cccnc2)cc1` the Potency was “inactive”. With `O=[N+]([O-])c1cccc(/C=N/Nc2nc(C(Cl)(Cl)Cl)nc3ccccc23)c1` the Potency was inconclusive: 0.828 µM [inhibitor, full curve, poor fit]. For `Cc1c(NC(=O)CN2CC(C)OC(C)C2)c(=O)n(-c2ccccc2)n1C` (stereo not drawn), the Potency was “inactive”. For `O=C(NCC(c1cccs1)N1CCOCC1)c1cc(-c2ccccn2)nc2ccccc12` (stereo not drawn), the Potency was inconclusive: 14.7 µM [inhibitor, single point]. For `COc1ccc(/C=C/C(=O)C(C)(C)C)cc1OC`, the Potency was inconclusive: 13.1 µM [inhibitor, single point]. In the case of `CCN1CCN(C(=O)c2ccc(CS(=O)(=O)Cc3ccccc3C)o2)CC1`, the Potency is reported as inconclusive: 3.29 µM [inhibitor, partial curve, poor fit]. With `C=C(C)C(=O)Nc1cccc(C2=NOC3(C2)C[C@@H](C(N)=O)N(C(=O)/C=C/CC)C3)c1` (stereo partly drawn) the Potency was “inactive”. In the case of `CCOC(=O)c1c(NC(=O)CSc2nnc(C)s2)sc2c1CCC(CC)C2` (stereo not drawn), the Potency is reported as inconclusive: 13.1 µM [inhibitor, partial curve, poor fit]. In the case of `Cc1ccc(N=CC2=C(O)CC(c3ccc(Cl)cc3)CC2=O)cc1` (stereo not drawn), the Potency is reported as “inactive”. In the case of `Cc1ccc(S(=O)(=O)NC2c3cccc4cccc(c34)C2Sc2nncn2C)cc1` (stereo not drawn), the Potency is reported as inconclusive: 18.5 µM [inhibitor, single point]. For `O=C(CN(c1cccc([N+](=O)[O-])c1)S(=O)(=O)c1ccccc1)NCc1cccnc1`, the Potency was inconclusive: 18.5 µM [inhibitor, single point]. With `O=C1OC(c2ccc(F)cc2)=N/C1=C\C=C/c1ccccc1` the Potency was inconclusive: 13.1 µM [inhibitor, single point]. For `COc1cccc(C(=O)c2c(C)c(CCC#N)n3ccccc23)c1`, the Potency was “inactive”. In the case of `CC(C)c1ccc(NC(=O)C2CCCN(S(=O)(=O)c3ccc4c(c3)C(C)(C)C(=O)N4C)C2)cc1` (stereo not drawn), the Potency is reported as inconclusive: 18.5 µM [inhibitor, single point]. In the case of `CCOC(=O)c1ccc(Nc2ccc([N+](=O)[O-])cn2)cc1`, the Potency is reported as inconclusive: 0.329 µM [inhibitor, partial curve, poor fit]. In the case of `O=C(CCN1C(=O)C2CCCCC2C1=O)N1CCN(S(=O)(=O)c2cccc(F)c2)CC1` (stereo not drawn), the Potency is reported as inconclusive: 18.5 µM [inhibitor, partial curve, poor fit]. In the case of `CCC1=Nc2cc(C(=O)N3CCC4(CC3)OCCO4)ccc2Sc2ccc(C)cc21`, the Potency is reported as “inactive”. With `CCOc1cc(/C=C2\C(=N)N3N=C(CC)SC3=NC2=O)ccc1OCCOc1ccc(NC(C)=O)cc1` the Potency was active: 2.62 µM. With `CCOC(=O)CN1CC23C=CC(O2)C(C(=O)NC2CCCC2)C3C1=O` (stereo not drawn) the Potency was inconclusive: 14.7 µM [inhibitor, partial curve]. In the case of `CC(=O)N1N=C(c2ccc(C)c([N+](=O)[O-])c2)OC1(C)C`, the Potency is reported as inconclusive: 18.5 µM [inhibitor, single point]. In the case of `Cc1ccc(N2CC(C(=O)N3CCN(Cc4ccc5c(c4)OCO5)CC3)CC2=O)cc1` (stereo not drawn), the Potency is reported as inconclusive: 10.4 µM [inhibitor, single point]. In the case of `CCOC(=O)NN1C(=O)c2ccccc2NC1c1ccccc1F` (stereo not drawn), the Potency is reported as “inactive”. In the case of `CN(C)c1ccnc(-n2cccc2/C=N/OCc2ccc(F)cc2Cl)c1C#N`, the Potency is reported as inconclusive: 13.1 µM [inhibitor, single point]. In the case of `FC(F)(F)c1cccc(Cn2nnnc2-c2ccc(Cl)cc2)c1`, the Potency is reported as active: 8.28 µM. For `CCOC(=O)c1cccnc1`, the Potency was “inactive”. In the case of `CC(O)C1CCC2C3CCC4CC(O)CCC4(C)C3CCC12C` (stereo not drawn), the Potency is reported as inconclusive: 3.79 µM [inhibitor, full curve]. For `CCCC(=O)Nc1cc(C)c(NC(=O)C23CC4CC(CC(C4)C2)C3)cn1`, the Potency was inconclusive: 10.4 µM [inhibitor, single point]. In the case of `Nc1ccc(N2CCN(c3ccc(F)cc3)CC2)cc1`, the Potency is reported as inconclusive: 10.4 µM [inhibitor, partial curve, poor fit]. In the case of `Cc1ccc(C(=O)N2CCOCC2)c(F)c1F`, the Potency is reported as “inactive”. With `COc1cccc(C(=O)NCCS(=O)(=O)NCc2cccs2)c1` the Potency was inconclusive: 0.104 µM [inhibitor, full curve, poor fit]. For `COc1ccc(C(=O)CCC(=O)Nc2ccc(N3CCN(C)CC3)cc2)cc1OC`, the Potency was “inactive”. In the case of `CCN(CC)c1ccc2c(C)c(-c3ccc(N)cc3)c(=O)oc2c1`, the Potency is reported as inconclusive: 11.7 µM [inhibitor, partial curve, poor fit]. In the case of `CCOC(=O)c1sc2ccc(S(=O)(=O)N3CC(C)CC(C)C3)cc2c1N` (stereo not drawn), the Potency is reported as inconclusive: 0.147 µM [inhibitor, partial curve]. For `Cc1ncc([N+](=O)[O-])n1CCOC(=O)Nc1ccc(Cl)c(Cl)c1`, the Potency was “inactive”. For `Cc1ccc(-c2nnc(SCC(=O)N/N=C/c3cccs3)n2-c2ccc(C)cc2)cc1`, the Potency was active: 13.1 µM. With `CCOC(=O)c1sc(NC(=O)c2ccncc2)c(C#N)c1C` the Potency was inconclusive: 11.7 µM [inhibitor, single point]. With `CC(NC(=S)Nc1ccc(F)cc1)c1ccccc1` (stereo not drawn) the Potency was inconclusive: 4.15 µM [inhibitor, single point]. In the case of `COc1ccc(S(=O)(=O)N2CCC(C(=O)NCc3ccccn3)CC2)cc1C`, the Potency is reported as inconclusive: 11.7 µM [inhibitor, single point]. With `Cc1nc(SCc2ccc([N+](=O)[O-])cc2)n[nH]1` the Potency was inconclusive: 5.86 µM [inhibitor, partial curve, poor fit]. In the case of `CN(C)S(=O)(=O)N1CCC(Oc2cccc(C(=O)NC3CCOC3)c2)CC1` (stereo not drawn), the Potency is reported as “inactive”. For `CC(=O)c1cccc(CN2CCN(C(C)C)C(CCO)C2)c1` (stereo not drawn), the Potency was inconclusive: 18.5 µM [inhibitor, single point]. With `CN1CCc2c(sc3c2C(=O)NC(c2cn(Cc4ccccc4)c4ccccc24)N3)C1` (stereo not drawn) the Potency was inconclusive: 11.7 µM [inhibitor, single point]. With `CC(C)(C)C1=CC(=O)C(N2CCOCC2)=CC1=O` the Potency was active: 14.7 µM. With `CCOC(=O)c1nnn(-c2nonc2N)c1CSc1ccccc1` the Potency was active: 3.29 µM. With `CCC1Oc2ccccc2N(CC(=O)NCCC2=CCCCC2)C1=O` (stereo not drawn) the Potency was inconclusive: 18.5 µM [inhibitor, single point]. For `CN(C)CCNC(=O)c1nn(C)c2c1CCc1ccccc1-2`, the Potency was inconclusive: 5.22 µM [inhibitor, partial curve]. For `CCOC(=O)Cn1c(C)nc2c(C(=O)OCC)sc(C)c2c1=O`, the Potency was inconclusive: 9.28 µM [inhibitor, single point]. In the case of `Cc1c(C(=O)Oc2cccc3cccnc23)cccc1[N+](=O)[O-]`, the Potency is reported as inconclusive: 18.5 µM [inhibitor, single point]. For `Nc1ccc(C(=O)N2CCN(S(=O)(=O)c3ccc4c(c3)OCCO4)CC2)cc1[N+](=O)[O-]`, the Potency was “inactive”.
